These results are taken from article PMC7819943, “Rice protein-binding microarrays: a tool to detect cis-acting elements near promoter regions in rice”.

Chains of the proteins cited; added tags and fusions are not shown.
UniProt Q0JBA9, entry or part of it: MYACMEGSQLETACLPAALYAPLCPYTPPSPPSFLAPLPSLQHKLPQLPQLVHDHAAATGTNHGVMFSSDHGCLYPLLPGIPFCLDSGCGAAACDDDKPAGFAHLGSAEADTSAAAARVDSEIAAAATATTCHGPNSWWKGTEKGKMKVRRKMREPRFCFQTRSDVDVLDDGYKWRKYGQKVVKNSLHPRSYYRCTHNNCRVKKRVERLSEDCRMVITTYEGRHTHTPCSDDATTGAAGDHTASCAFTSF

Some of the results follow.

The experiment has as its target OsWRKY34 (Oryza sativa, UniProt Q0JBA9 1-250). The experiment in a line: protein-binding microarray (RPBM); PBS, 2% BSA, 51.3 ng/ul salmon testes DNA, 50 uM zinc acetate, 200 nM TF, 25 C, 1 h; high values mean tight binding. Particulars: protein: recombinant; tags: N-terminal polyhistidine and DsRed monomer fusion (pET32a); label: CyDye5-dUTP incorporated in the synthesized complementary strand; 3' TTTTT single-stranded linker to array surface; dsDNA, one strand shown. The essentials: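 Ni–NTA purification followed expression in E. coli BL21-CodonPlus of transcription factors fused N-terminally to a polyhistidine tag and DsRed. At 200 nM in PBS with 2% BSA, salmon testes DNA and 50 µM zinc acetate, the protein was incubated for 1 h at 25 °C with a custom Agilent array that had been primer-extended with Cy5-dUTP and blocked with 2% BSA. After washing, the array was read on an Axon 4000B scanner. The binding signal is per-feature fluorescence intensity in arbitrary units.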
For the sequence “GCAAGTTTTTAGGCTCTCTTCAACCCTCGGCTCTGCTACCCGGAGTCACCTAGTGCAG”, the binding signal was 9130 fluorescence intensity (a.u.).
The result for “AACTTTCAACTTTTCCGTCACATTAAATATTTGGACACATCGGAGTCACCTAGTGCAG” reads 10500 fluorescence intensity (a.u.); that for “CAACCAACCCCACCACGCGTCCTGCATAATCACCGTCCGTCGGAGTCACCTAGTGCAG”, 8840 fluorescence intensity (a.u.); that for “TACTGTTTGGTTGTTCTTTACCTGGAGATGTTGTACATGTCGGAGTCACCTAGTGCAG”, 10800 fluorescence intensity (a.u.).
The value for “AGTAACTGTAACTGAAGAAGCCGGCGCCACCATTCCCGCCCGGAGTCACCTAGTGCAG” was 8100 fluorescence intensity (a.u.); that for “TTGCCTCACGGCGTTACGTGCCCAGCTGATTTCCCGTTTACGGAGTCACCTAGTGCAG” was 10800 fluorescence intensity (a.u.).
The value for “CGTATTTTAATATATGACGCCGTTGACTTTTTATTAACGACGGAGTCACCTAGTGCAG” was 23200 fluorescence intensity (a.u.); that for “ATATATTCGGCCACACCCACACCTAGCTTCGTTGCAGCTACGGAGTCACCTAGTGCAG” was 8420 fluorescence intensity (a.u.).
Consider “TCTCTTGCTGTGTGTGGCGCCTGCTTTCCTCGAGGATAACCGGAGTCACCTAGTGCAG”, for which the binding signal is 10900 fluorescence intensity (a.u.).
The value for “ATCGAAACCGTGGATGGACTTGGGGTTGGGTGGTGGTGGTCGGAGTCACCTAGTGCAG” was 11700 fluorescence intensity (a.u.); that for “TCTCCTGCCTACTATTTCCATTGTCTGTCGGAATATTTTTCGGAGTCACCTAGTGCAG” was 8520 fluorescence intensity (a.u.).
The result for “TTACAACACCATTGGCATTTGGTTGTCATTGACGCTGCTACGGAGTCACCTAGTGCAG” reads 8200 fluorescence intensity (a.u.); that for “GCTGATTACATCCGTCTCACTTTGACCATGGATTACTTTTCGGAGTCACCTAGTGCAG”, 10700 fluorescence intensity (a.u.).
The result for “ACGACCACGCCGCCCGCCGATCCTCCATCGCCGCCTTCACCGGAGTCACCTAGTGCAG” reads 9300 fluorescence intensity (a.u.); that for “CACGTTCGCTCTCATGGCCTAGAAATTCTCACATTAATCACGGAGTCACCTAGTGCAG”, 9110 fluorescence intensity (a.u.); that for “AATCAGATGGAGAGTTGGTTATATGGGTGTTTGGAGAGTTCGGAGTCACCTAGTGCAG”, 8410 fluorescence intensity (a.u.).
With “CTCCTCCTCCCTGCGGCTTCTTCTTCGCCATAACGCCATGCGGAGTCACCTAGTGCAG”, the binding signal is 8540 fluorescence intensity (a.u.).
The value for “GGGGAGGCGGGGTGGCGGGAGGGAAGGCGGCGGCGGCGCCCGGAGTCACCTAGTGCAG” was 12700 fluorescence intensity (a.u.).
The value for “GATAATTTGTTTGTTCTCCGAAATTACCAAACTGTCCTTTCGGAGTCACCTAGTGCAG” was 9900 fluorescence intensity (a.u.).
The value for “GATTTTCTGTTTCACATCTTGTTGTTTGAACCTATGTGTGCGGAGTCACCTAGTGCAG” was 9150 fluorescence intensity (a.u.); that for “AACTCGTGGCTCTCGTCCCATTCCCACGCTTGCGCAAGCGCGGAGTCACCTAGTGCAG” was 9720 fluorescence intensity (a.u.).
“CGCCGGCGTCCCTTCGTCCTCGCCACCGGCGTCGAGCTTCCGGAGTCACCTAGTGCAG”: the binding signal is 12100 fluorescence intensity (a.u.).
The value for “CTGTCACCGTCACATCCGATGGATAGAGCAACCATTTCCTCGGAGTCACCTAGTGCAG” was 9300 fluorescence intensity (a.u.); that for “CATCCATCGTATCCACCGCCGTCGCCTTCCATCCTCCCCGCGGAGTCACCTAGTGCAG” was 8040 fluorescence intensity (a.u.).
The value for “CATCTGCTCGAACTTCTCTCCTCTCCCACGATGAACCCTACGGAGTCACCTAGTGCAG” was 9060 fluorescence intensity (a.u.); that for “ATGTCCCTTTTTGTCATTAGTCATCACCCAAAAGAAACCACGGAGTCACCTAGTGCAG” was 8240 fluorescence intensity (a.u.); that for “CCGCCGCCAGTTCGTCGTCGTCTCGTCCCCTTTCCTTCCTCGGAGTCACCTAGTGCAG” was 8720 fluorescence intensity (a.u.).
The result for “GCCCTCGCGCACTCCACCGCCGCCGCCGCCTCTCGTCTCCCGGAGTCACCTAGTGCAG” reads 13200 fluorescence intensity (a.u.).
As for “CACCGTCTCCGCTTCCCTCGCGTCCTCTTGTCCTCACGCACGGAGTCACCTAGTGCAG”, the binding signal is 8330 fluorescence intensity (a.u.).
Turning to “ATGTTTACTTGTACTAACCGGTTGAGATTGCAATATTTTACGGAGTCACCTAGTGCAG”, the binding signal was 8320 fluorescence intensity (a.u.).
The value for “AATTGTGGGCAGGTTTGCATCGCTGGTCCAGCAGCTTTGACGGAGTCACCTAGTGCAG” was 8320 fluorescence intensity (a.u.).
With “CCCTCCATCCTATACTGTTAATATCCAATATTTGACCGTTCGGAGTCACCTAGTGCAG”, the binding signal was 8800 fluorescence intensity (a.u.).
In the case of “CTATTTTGCGTCCCTCATTTCTTACCTGCGATCTCATTGGCGGAGTCACCTAGTGCAG”, the binding signal is 10100 fluorescence intensity (a.u.).
The value for “CGTCGATCAAATCATCCATCCATCCATCTAGAACACGATGCGGAGTCACCTAGTGCAG” was 12900 fluorescence intensity (a.u.); that for “TCACGTTCAACGTTTGACTGTTCGTCTTATTTAAAATTTTCGGAGTCACCTAGTGCAG” was 8400 fluorescence intensity (a.u.).
The value for “ACCTACAAATCTCATCATCTCATCAATATCCATTTCTACACGGAGTCACCTAGTGCAG” was 10700 fluorescence intensity (a.u.); that for “TATTAATGGCCTTACATCTATCTTGTATCGTAGTATTACCCGGAGTCACCTAGTGCAG” was 11900 fluorescence intensity (a.u.).
The result for “TCAATGCCAACAACAAACTTCATTTTGCTACCTTAGCTTCCGGAGTCACCTAGTGCAG” reads 9110 fluorescence intensity (a.u.); that for “TGGTTTTGGCAGCTGCTGTGTGCACTTGTGGGTTTTTTCTCGGAGTCACCTAGTGCAG”, 8960 fluorescence intensity (a.u.); that for “CTTAATTGTAAATCGTTACAGTTTGTTGTCATTTCATTTCCGGAGTCACCTAGTGCAG”, 10600 fluorescence intensity (a.u.).
Take “ACCTTAATTAATTAATCTTGTTTTCTCATGGAGTTGTCATCGGAGTCACCTAGTGCAG”: the binding signal is 10400 fluorescence intensity (a.u.).
For the sequence “GAATGGTCAAATATGTGAGAAAAAGTCAACGGCGTCATTTCGGAGTCACCTAGTGCAG”, the binding signal was 14400 fluorescence intensity (a.u.).
